Data on two molecules can be found in US20170101470A1 (PROTHENA BIOSCIENCES, published 2017).

The target in assay [1] is T1, human MCAM-Fc protein (extracellular domain of human MCAM fused to human IgG) (human) (UniProt P43121).
T1 sequence: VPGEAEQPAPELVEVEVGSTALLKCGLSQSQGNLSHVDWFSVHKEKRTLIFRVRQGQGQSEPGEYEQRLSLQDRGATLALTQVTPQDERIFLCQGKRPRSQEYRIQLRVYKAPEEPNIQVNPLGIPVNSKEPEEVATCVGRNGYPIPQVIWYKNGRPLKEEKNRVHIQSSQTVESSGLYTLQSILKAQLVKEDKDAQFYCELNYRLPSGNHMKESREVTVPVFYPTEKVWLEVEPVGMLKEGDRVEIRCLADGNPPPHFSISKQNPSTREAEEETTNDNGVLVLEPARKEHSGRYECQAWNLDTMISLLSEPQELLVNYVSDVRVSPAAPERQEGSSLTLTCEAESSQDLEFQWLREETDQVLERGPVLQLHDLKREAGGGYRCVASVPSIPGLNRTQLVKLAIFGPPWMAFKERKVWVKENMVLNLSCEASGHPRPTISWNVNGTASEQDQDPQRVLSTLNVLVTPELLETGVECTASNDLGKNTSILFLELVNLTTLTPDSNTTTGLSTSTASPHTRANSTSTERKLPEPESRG
Briefly: summary sentence of Example 3 (ForteBio, MCAMhFc).

In assay [2] the target is T2, human MCAM domains 1 and 2 hFc construct (human, UniProt P43121 19-242).
T2 construct: One of the 'various MCAMhFc domains' loaded on the ForteBio sensors
T2 sequence: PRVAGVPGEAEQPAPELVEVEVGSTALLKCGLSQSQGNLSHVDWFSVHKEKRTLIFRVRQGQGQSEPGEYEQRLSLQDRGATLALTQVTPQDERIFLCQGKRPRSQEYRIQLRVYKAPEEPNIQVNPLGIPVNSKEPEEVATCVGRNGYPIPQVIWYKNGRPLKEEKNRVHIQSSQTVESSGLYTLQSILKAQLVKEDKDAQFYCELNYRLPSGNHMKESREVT
Briefly: ForteBio Octet Red, MCAMhFc domains on anti-human IgG Fc sensors, antibody at 5 ug/ml.

The target in assay [3] is T3, human MCAM expressed on CHO cells (full length human MCAM gene) (human) (UniProt P43121).
T3 sequence: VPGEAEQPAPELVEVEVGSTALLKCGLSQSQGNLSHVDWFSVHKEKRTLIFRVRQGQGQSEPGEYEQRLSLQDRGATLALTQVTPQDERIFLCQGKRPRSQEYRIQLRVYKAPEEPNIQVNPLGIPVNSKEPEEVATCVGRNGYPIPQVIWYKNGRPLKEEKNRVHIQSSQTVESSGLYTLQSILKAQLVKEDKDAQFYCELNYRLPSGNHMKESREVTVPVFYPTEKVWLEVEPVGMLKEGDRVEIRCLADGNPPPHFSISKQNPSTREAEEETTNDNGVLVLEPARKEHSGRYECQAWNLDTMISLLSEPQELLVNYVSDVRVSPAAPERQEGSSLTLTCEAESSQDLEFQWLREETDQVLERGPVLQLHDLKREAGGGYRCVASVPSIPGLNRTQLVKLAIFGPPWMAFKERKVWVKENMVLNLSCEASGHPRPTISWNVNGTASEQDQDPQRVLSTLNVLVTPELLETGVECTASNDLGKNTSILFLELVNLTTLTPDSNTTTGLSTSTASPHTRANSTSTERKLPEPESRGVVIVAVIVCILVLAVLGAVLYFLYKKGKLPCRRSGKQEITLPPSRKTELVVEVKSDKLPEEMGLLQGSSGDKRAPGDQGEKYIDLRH
Briefly: binding affinity experiments, data not shown; human MCAM on the surface of living cells.

Results are given in words; binding and its absence hold for the method and conditions named. Some binding calls cover weakened binding; strength is not graded here. For some of these results: Where a sequence is shown, tags or fusion partners need not be part of it.

B1: rat anti-human MCAM monoclonal antibody clone 2107.4.10 (antibody, V domains shown)
VH: QVQLKESGPGLVQSSQTLSLTCTVSGFSLTSNGVSWVRQPPGKGLEWIAAISSGGSTYYNSAFKSRLSISRNTSKSQVLLKMNSLQTEDTGMYFCARHRPFYFDYWGQGVMVTVSS
VL: DIQVTQSPSLLSASVGDRVTLNCKGSQNIYKSLAWFRLKRGEAPKLLIYDANSLQTGIPSRFSGSGSGTDFTLTITSLQPEDVATYFCQQYYSGYTFGAGTKLELK
notes: Rat hybridoma antibody
Consider B1, for which the binding entry in assay [1], in assay [2] and in assay [3] was “binds” throughout.

B2: rat anti-human MCAM monoclonal antibody clone 2120.4.19 (antibody, V domains shown)
VH: QVQLKESGPGLVQPSQTLSLTCTVSGFSLTSNGVSWVRQPPGKGLEWIAAISSGGTTYYNSAFKSRLSISRNTSKSQVLLKMNSLQTEDTAMYFCARRYGYGWYFDFWGPGTMVTVSS
VL: DIRMTQSPSLLSASVGDRVTLNCKASQNIYNSLAWYQQKLGEGPKVLIPNANSLQTGIPSRFSGSGSGTDFTLTISSLQPEDFATYFCQQFYSGYTFGAGTKLELK
notes: also called m2120
With B2, the binding result in assay [2] was “binds”.
